# Measured values published in publication PMC7862700.
# Sequences of proteins named here, by UniProt entry; tags and fusion partners are left off. A change or cut given only in a name is not applied to a line headed by its entry.
# UniProt P41212: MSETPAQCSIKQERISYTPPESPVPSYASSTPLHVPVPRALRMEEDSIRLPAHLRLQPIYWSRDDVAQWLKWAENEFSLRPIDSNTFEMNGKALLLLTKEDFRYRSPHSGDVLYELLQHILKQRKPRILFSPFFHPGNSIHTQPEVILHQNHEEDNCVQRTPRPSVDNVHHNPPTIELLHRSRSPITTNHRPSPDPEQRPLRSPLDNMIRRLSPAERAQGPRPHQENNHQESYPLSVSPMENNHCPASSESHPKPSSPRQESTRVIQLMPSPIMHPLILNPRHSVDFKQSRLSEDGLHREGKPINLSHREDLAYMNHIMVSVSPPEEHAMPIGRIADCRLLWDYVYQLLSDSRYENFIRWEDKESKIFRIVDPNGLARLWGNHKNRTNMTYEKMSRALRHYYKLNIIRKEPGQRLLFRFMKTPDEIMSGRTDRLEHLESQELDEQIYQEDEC
# Only a part is listed here, and it is no random draw. At the low end of the ranking the order means little.
# Molecular target: ETV6 (UniProt P41212)
# Test: DAPPL (digital affinity profiling via proximity ligation, sequencing)
# Conditions: 10 mM Tris-HCl pH 7.5, 50 mM NaCl, 1 mM DTT, 4% glycerol, room temperature, 30 min; GST-TFs on glutathione beads, 16-mer random dsDNA library, 0.1% …; high values mean tight binding; double strand, one strand shown; scale: fold enrichment (6-mer frequency, TF over GST control)
row,Sequence,binding signal
1,TCTCCT,1.44
2,CAAACA,1.1
3,TTTTCC,2.08
4,CGCGCG,0.961
5,ATTGTA,1.27
6,CCCACT,1.37
7,CATCTC,1.26
8,AAAGGG,1.1
9,CGCGAT,1.05
10,CTTTAG,1.21
11,TCTTTC,1.38
12,TTGCCC,1.23
13,GTCCCA,1.03
14,CCGCCA,1.26
15,CGTTTA,1.14
16,TGTGGC,1.19
17,GGTTCT,0.911
18,TTTGTC,1.17
19,AAGCAA,1.02
20,TTGCCA,1.06

row,Sequence,binding signal
1,TTCACG,1.43
2,CTTCGT,1.31
3,TGCATG,1.08
4,GGGTTT,1.07
5,GGCTAC,1.2
6,CGCCCC,1.19
7,TCCGGG,1.77
8,AGTAAT,1.15
9,TAAACT,1.13
10,CAAGCC,0.943
11,GAAAAT,1.19
12,GTACGA,1.05
13,TAAGTT,1.49
14,TAGACA,0.95
15,CATGAC,1.18
16,AAAACC,1.19
17,CTTCAC,1.43
18,GCGATA,0.98
19,TACCTA,1.29
20,GCAGCT,1.06

# Retrieved one by one from the list above (2):
row,Sequence,binding signal
20,GCAGCT,1.06
13,TAAGTT,1.49
